# From PubChem BioAssay AID2685 (National Center for Advancing Translational Sciences (NCATS), 2010)
# This is one part of the list. Further columns of the screen follow, without active or inactive calls. Most of these compounds were active or inconclusive in the main read-out, so they are no random draw. Potencies come from curve fits of mixed quality, noted in brackets.
# Experiment: qHTS Assay for Lipid Storage Modulators in Drosophila S3 Cells;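 on cell number change: cells counted by Cell Tracker Red CMTPX staining in the red channel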
# Conditions: BODIPY lipid droplet fluorescence, 18-24 h; for cell number change: measured here: cell count max response, cells fed with added oleic acid
# In short: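 Drosophila S3 cells got compounds at several concentrations plus oleic acid (400 uM solution). Laser-scanning cytometry with 488 nm excitation read lipid droplets at 500-530 nm and cells at 575-640 nm. Percent activity was relative to 20 uM Triacsin C.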
# [1] = measured here: lipid fluorescence (Fed channel) AC50, cells fed with added oleic acid
# [2] = measured here: cell number channel AC50, cells fed with added oleic acid
smiles,measurement,setting,value
CCOCCCNC(=O)c1oc2ccc3c(c2c1C)C(O)CC(C)(C)O3 (stereo unspecified),cell number change,,-3.55%
CC(C)C[C@H](NC(=O)[C@@H]1Cc2c([nH]c3ccccc23)C2c3ccccc3C(=O)N21)C(=O)N1CCC[C@@H]1C(=O)O (stereo partly specified),cell number change,,15.9%
same,AC50,[1],"1.3 µM [falling, partial curve]"
O=C(CSc1nnc2ccccn12)N1CCc2ccccc21,cell number change,,-31.3%
same,AC50,[2],"3.26 µM [falling, full curve]"
COc1ccccc1NC(=S)N(Cc1ccc(C)cc1)Cc1ccccn1,cell number change,,-14.1%
same,AC50,[1],"0.82 µM [falling, partial curve, poor fit]"
CC1(C)CC(NC(=O)CSc2ccccc2)CC(C)(C)N1,cell number change,,24.6%
Cc1ccc(NC(=O)CCNS(=O)(=O)c2ccccc2F)cc1S(=O)(=O)N1CCOCC1,AC50,[1],"20.6 µM [falling, single point]"
Cc1ccc(N2CC(C)Cn3c2nc2c3c(=O)n(CC(=O)OCc3ccccc3)c(=O)n2C)cc1C (stereo unspecified),cell number change,,16.8%
same,AC50,[2],"3.66 µM [rising, single point]"
same,AC50,[1],"2.31 µM [rising, partial curve]"
CN1CCN(NC(=O)c2cccs2)CC1,cell number change,,-93.2%
same,AC50,[2],"14.6 µM [falling, partial curve]"
CN(c1ccc(OCC(=O)N2CCC(C(N)=O)CC2)cc1)S(=O)(=O)c1cccs1,cell number change,,16.1%
same,AC50,[2],"1.3 µM [falling, partial curve]"
O=C(CSc1nnc(NC(=O)c2ccccc2F)s1)NCC1CCCO1 (stereo unspecified),cell number change,,-9.07%
same,AC50,[1],"29.1 µM [rising, single point]"
O=C(COC(=O)c1ccc2ncsc2c1)NC(=O)NCc1ccccc1,cell number change,,-33.6%
same,AC50,[2],"1.3 µM [falling, partial curve]"
O=C1NCCCCC1NC1CC(=O)N(c2ccccc2)C1=O (stereo unspecified),cell number change,,-9.53%
same,AC50,[1],"0.116 µM [falling, full curve]"
Cc1ccc(N(CC(=O)Nc2cc(Cl)ccc2Oc2ccccc2)S(C)(=O)=O)c(C)c1,cell number change,,96.3%
same,AC50,[2],"29.1 µM [rising, single point]"
same,AC50,[1],"29.1 µM [rising, single point]"
O=C(CCN1C(=O)c2ccccc2C1=O)Nc1cccc(S(=O)(=O)N2CCCCC2)c1,AC50,[1],"6.51 µM [rising, partial curve]"
Cc1cccc(C(=O)NNC(=S)NC(=O)c2cccs2)c1,cell number change,,-32.2%
same,AC50,[2],"32.6 µM [falling, single point]"
same,AC50,[1],"29.1 µM [falling, single point]"
CCCc1cc(C(=O)Nc2cc(OC)ccc2OC)cs1,cell number change,,45.2%
same,AC50,[2],"12.6 µM [rising, partial curve]"

# Exported as tab-separated lines: part of the list above.
smiles	measurement	setting	value
Cc1ccc(N(CC(=O)Nc2cc(Cl)ccc2Oc2ccccc2)S(C)(=O)=O)c(C)c1	cell number change		96.3%
same	AC50	[1]	29.1 µM [rising, single point]
